Measured values reported in the supplement of paper PMC7858590.
Values joined by “and” are separate entries in the source; they are usually repeats but may differ in a detail not shown here. Identical values can stand only once. ± gives the standard deviation of the averaged measurements. In all, about 3,800 compounds were measured (“cell shape (eccentricity) Z-score vs DMSO control”: median about 1.1, lowest 2% from about -4.7 on). Some of the results follow.

Each compound was assayed on human monocyte-derived macrophages (M0) (assay: cell shape (eccentricity) Z-score vs DMSO control; higher = more elongated, M2-like morphology). Conditions: 20 µM; 24 h; macrophage state: M0 (M-CSF).

With `CCCC1=CC(=O)C(O)C1O` (stereo not given) as the compound, how does the “cell shape (Z-score)” value read?
The value was 0.248.

With `COC(=O)C1=CO[C@@H](OC2OC(O)C(O)C(O)C2CO)[C@H]2[C@@H]1C=CC21C=C([C@H](C)O)C(=O)O1` (stereo not given in full) as the compound, how does the “cell shape (Z-score)” value read?
Its value is 1.86.

With `CC1(CCO[C@H]2O[C@H](CO)[C@@H](O)[C@H](O)[C@H]2O)CCC2C(=CCC3[C@]2(C)CCC[C@@]3(C)C(=O)O)C1` (stereo not given in full) as the compound, how does the “cell shape (Z-score)” value read?
Its value is 2.05 ± 2.1.

How did the “cell shape (Z-score)” value turn out when `CC1(C)CC[C@]2(C(=O)O[C@@H]3O[C@H](CO)[C@@H](O)[C@H](O)[C@H]3O)CC[C@]3(C)C(=CCC4[C@@]5(C)C[C@@H](O)[C@H](O)[C@@](C)(CO)C5[C@H](O)C[C@]43C)C2[C@@H]1O` (stereo not given in full) was run?
Its value is 3.49.

For `O=c1[nH]c2cc([N+](=O)[O-])c([N+](=O)[O-])cc2[nH]c1=O`, which “cell shape (Z-score)” value is on record?
Its value is 3.5.

Which “cell shape (Z-score)” value does the source give for `Cc1cc(C(=O)Nc2cccc3c2O[C@H](CN(C)C)[C@@H](C)CN([C@H](C)CO)C3=O)n(C)n1` here?
The value was -0.292.

How did the “cell shape (Z-score)” value turn out when `COc1ccc(CCCn2ncc3c2nc(N)n2nc(-c4ccco4)nc32)cc1` was run?
Its value is 2.51.

For `COC(=O)C(c1ccccc1Cl)N1CCc2sccc2C1` (stereo not given), which “cell shape (Z-score)” value is on record?
The value was 3.31.

For `Cn1c2ccccc2c2c3c(c4c5ccccc5n(CCC#N)c4c21)CNC3=O`, which “cell shape (Z-score)” value is on record?
Its value is 13.

With `CCC(=O)O[C@]1(C(=O)CCl)[C@@H](C)CC2C3CCC4=CC(=O)C=C[C@]4(C)[C@@]3(F)[C@@H](O)C[C@@]21C` (stereo not given in full) as the compound, how does the “cell shape (Z-score)” value read?
Its value is 2.69.

Which “cell shape (Z-score)” value does the source give for `O=C(O)c1cc(O)c2c(Cl)cc(Cl)cc2n1` here?
Its value is 2.08.

With `CCOc1ccccc1OC(c1ccccc1)C1CNCCO1` (stereo not given) as the compound, how does the “cell shape (Z-score)” value read?
Its value is 1.66.

Which “cell shape (Z-score)” value does the source give for `CC(C=CC1=C(C)CCCC1(C)C)=CC=CC(C)=CCO` here?
The value was 5.37 and 5.62.

`COc1c(CO)c(O)cc2c1C(=O)CCC2O` (stereo not given) was tested. Which “cell shape (Z-score)” value did it give?
Its value is 3.82.

How did the “cell shape (Z-score)” value turn out when `N=C(N)Nc1ccc(Cl)cc1` was run?
The value was 0.554.

For `NC(Cn1ccc(=O)n(Cc2ccccc2C(=O)O)c1=O)C(=O)O` (stereo not given), which “cell shape (Z-score)” value is on record?
Its value is 2.3.

Which “cell shape (Z-score)” value does the source give for `COC(=O)c1ccc2c(c1)nc(NC(=O)c1ccccc1)n2CCCc1ccccc1` here?
The value was 2.3.

With `CN(C)CCCO[C@H]1[C@@H](C(O)CO)OC2OC(C)(C)O[C@@H]21` (stereo not given in full) as the compound, how does the “cell shape (Z-score)” value read?
Its value is 3.13.

Which “cell shape (Z-score)” value does the source give for `CC(C)NCC(O)c1ccc2ccccc2c1` (stereo not given) here?
The value was 0.398.

How did the “cell shape (Z-score)” value turn out when `COc1cc2c(Oc3ccc4[nH]c(C)cc4c3F)ncnc2cc1OCCCN1CCCC1` was run?
Its value is 10.

With `O=C(O)CCC(=O)Nc1ccc(S(=O)(=O)Nc2nccs2)cc1` as the compound, how does the “cell shape (Z-score)” value read?
Its value is 1.06.

Which “cell shape (Z-score)” value does the source give for `C=C1CCC2C(C(=O)O)=COC(O[C@@H]3O[C@H](CO)[C@@H](O)[C@H](O)[C@H]3O)C12` (stereo not given in full) here?
Its value is -2.64.

Which “cell shape (Z-score)” value does the source give for `CC(O)(C(=O)Nc1ccc(S(=O)(=O)c2ccccc2)cc1)C(F)(F)F` (stereo not given) here?
Its value is 0.95.

How did the “cell shape (Z-score)” value turn out when `CC(=O)O[C@@H]1C[C@@]23C[C@@]24CC[C@H](O[C@@H]2OC[C@@H](O)[C@H](O)[C@H]2O)C(C)(C)[C@@H]4CC[C@H]3[C@]2(C)C[C@@H]3O[C@]4(C[C@@H](C)[C@@H]3[C@@]12C)O[C@H](O)[C@@]1(C)O[C@@H]41` was run?
Its value is 0.788.

How did the “cell shape (Z-score)” value turn out when `C=C1C2=CC(=O)O[C@@H](c3ccoc3)[C@]2(C)CCC1[C@@]1(C)C=CC(=O)C(C)(C)[C@@H]1CC(=O)OC` (stereo not given in full) was run?
The value was -1.71.

How did the “cell shape (Z-score)” value turn out when `C[C@@H]1O[C@@H](O[C@H]2[C@H](O[C@H]3CC[C@@]4(C)C(CC[C@]5(C)C4CC=C4C6CC(C)(C)CC[C@]6(C(=O)O)CC[C@]45C)[C@]3(C)CO)OC[C@H](O)[C@@H]2O)[C@H](O)[C@H](O)[C@H]1O` (stereo not given in full) was run?
The value was 0.241.

How did the “cell shape (Z-score)” value turn out when `COc1ccc(C[C@H](C)NC[C@@H](O)c2ccc(O)c(NC=O)c2)cc1.COc1ccc(C[C@H](C)NC[C@@H](O)c2ccc(O)c(NC=O)c2)cc1` was run?
Its value is 2.91.

How did the “cell shape (Z-score)” value turn out when `C=C(C)[C@H]1COc2cc3oc(=O)ccc3cc2O1` was run?
The value was 2.13.

For `CC1(CC(=O)O)CCC2(O1)C(CO)=CCC1C(C)(C)C(O)CCC12C` (stereo not given), which “cell shape (Z-score)” value is on record?
Its value is 0.483.

Which “cell shape (Z-score)” value does the source give for `N#Cc1nc2c(nc1C#N)-c1ccc(Cl)cc1C2=O` here?
The value was 2.23.

For `CC(=O)Nc1ccc(S(=O)(=O)Nc2ccc([N+](=O)[O-])cc2)cc1`, which “cell shape (Z-score)” value is on record?
The value was 3.83.

How did the “cell shape (Z-score)” value turn out when `COc1ccccc1OCC(O)CN1CCN(CC(=O)Nc2c(C)cccc2C)CC1` (stereo not given) was run?
Its value is -2.69.

For `COC(/C=C/C(OC(C)=O)C(C)OC(C)=O)C(O)C1CC=CC(=O)O1` (stereo not given), which “cell shape (Z-score)” value is on record?
The value was -2.32.

With `NS(=O)(=O)c1nn2cc(-c3ccccc3)nc2s1` as the compound, how does the “cell shape (Z-score)” value read?
The value was 4.03.

Which “cell shape (Z-score)” value does the source give for `O=S(=O)(c1cccc2cnccc12)N1CCNCC1` here?
The value was 10.1.

`CC1(C)O[C@@H]2CC3C4CCC5=CC(=O)CCC5(C)C4(F)C(O)CC3(C)[C@]2(C(=O)CCl)O1` (stereo not given in full) was tested. Which “cell shape (Z-score)” value did it give?
Its value is -3.6.

For `CC1=CC(=O)C2C(C)(C)CC(O)CC2(C)C1(O)CO` (stereo not given), which “cell shape (Z-score)” value is on record?
Its value is 2.65 ± 1.5.

With `CCCNCC(O)COc1ccccc1C(=O)CCc1ccccc1` (stereo not given) as the compound, how does the “cell shape (Z-score)” value read?
The value was 2.27.

How did the “cell shape (Z-score)” value turn out when `CCCCC1(COC(=O)CCC(=O)O)C(=O)N(c2ccccc2)N(c2ccccc2)C1=O` was run?
The value was 2.18.

For `C[C@@H]1O[C@@H](O[C@H]2[C@H](Oc3cc(O)c4c(=O)cc(-c5ccc(O)cc5)oc4c3)O[C@H](CO)[C@@H](O)[C@@H]2O)[C@H](O)[C@H](O)[C@H]1O`, which “cell shape (Z-score)” value is on record?
Its value is 1.02.

With `O=C1NC(=O)C(c2ccccc2)(c2ccccc2)N1` as the compound, how does the “cell shape (Z-score)” value read?
The value was 2.96.

For `O=C1c2cc(O)cc(O)c2C(=O)c2c(O)cc(CO)cc21`, which “cell shape (Z-score)” value is on record?
The value was -0.497.

Which “cell shape (Z-score)” value does the source give for `O=C(/C=C/c1ccc(O)c(O)c1)OC(Cc1ccc(O)c(O)c1)C(=O)O` (stereo not given) here?
The value was 2.69.

Which “cell shape (Z-score)” value does the source give for `CN1C(=O)c2ccccc2-n2c(nc3ccccc3c2=O)[C@@]12O[C@H]2c1ccccc1` here?
Its value is 2.3.

For `CC(C)CC(=O)O[C@@H]1OC=C(CO[C@@H]2O[C@H](CO)[C@@H](O)[C@H](O)[C@H]2O)[C@H]2C[C@H](O)[C@@](C)(O)[C@@H]12`, which “cell shape (Z-score)” value is on record?
Its value is 2.28 ± 0.88.

How did the “cell shape (Z-score)” value turn out when `CNCCCC1c2ccccc2C=Cc2ccccc21` was run?
Its value is 2.99.

For `CCN(CC)CCOc1ccc(Cc2ccccc2)cc1`, which “cell shape (Z-score)” value is on record?
The value was 0.76.

How did the “cell shape (Z-score)” value turn out when `C/C(=C\C(=O)Nc1ccccc1C(=O)O)c1ccc2ccccc2c1` was run?
Its value is 1.16.

With `O=[N+]([O-])c1cccc2c(Br)n[nH]c12` as the compound, how does the “cell shape (Z-score)” value read?
Its value is 1.68.

Which “cell shape (Z-score)” value does the source give for `Cc1ccc2nc(NCCN)c3ncc(C)n3c2c1` here?
The value was 0.943.

With `COc1cccc(OC)c1-c1cc(C(=O)NC2(C(=O)O)C3CC4CC(C3)CC2C4)nn1-c1ccc(C(=O)N(C)CCCN(C)C)cc1C(C)C` (stereo not given) as the compound, how does the “cell shape (Z-score)” value read?
Its value is 0.908.

With `CN/C(=C\[N+](=O)[O-])NCCSCc1csc(CN(C)C)n1` as the compound, how does the “cell shape (Z-score)” value read?
The value was 1.52.

With `CCN(Cc1cccc(S(=O)(=O)O)c1)c1cccc(C(=C2C=CC(=[N+](CC)Cc3cccc(S(=O)(=O)O)c3)C=C2)c2ccc(O)cc2S(=O)(=O)O)c1` as the compound, how does the “cell shape (Z-score)” value read?
The value was -0.759.

Which “cell shape (Z-score)” value does the source give for `COc1cc(NS(C)(=O)=O)ccc1Cc1c2ccccc2nc2ccccc12` here?
The value was 0.322.

With `CC1=C(CO)C(=O)OC([C@@H](C)[C@H]2CCC3C4CC=C5C[C@@H](O[C@@H]6O[C@H](CO)[C@@H](O)[C@H](O)[C@H]6O)C[C@H](O)[C@]5(C)C4CC[C@@]32C)C1` (stereo not given in full) as the compound, how does the “cell shape (Z-score)” value read?
The value was 1.5.
